Values are raw readings; no control value is given beside them.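 Maximum concentrations were near the MIC for antimicrobials, 500 µM for most other compounds, and as high as 1 mM for known inducer-like compounds. Deletion strains began with a tenfold smaller inoculum, and wells with growth under 10% of the overall median counted as non-growing.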
System: Escherichia coli BW25113
Assay: growth (OD600 area under curve, 8 h) (OD600 x h); higher = more growth
Procedure: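 E. coli BW25113 reporter strains (wild type, ΔmarA, ΔsoxS, Δrob, each carrying one of 8 lux reporter plasmids) were grown in 40 µl LB in 384-well plates at 37°C, 800 rpm, with each compound at 4 two-fold concentrations, in biological duplicates. Growth is the baseline-corrected OD600 area under the curve over 8 h (0-8 h WT, 1-9 h deletion strains).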

CNC[C@H](O)c1ccc(O)c(O)c1 [Adrenalin]
growth
Settings	reporter plasmid: EVC	reporter plasmid: acrABp	reporter plasmid: marRABp	reporter plasmid: micFp	reporter plasmid: ompFp	reporter plasmid: robp	reporter plasmid: soxSp	reporter plasmid: tolCp
13.7 µg/ml, genetic background: wild type	2.78	2.91	3.15	2.73	2.68	3.11	2.74	2.79
13.7 µg/ml, genetic background: ΔmarA	2.81	3.93	3.57	3.05	3.26	3.64	2.51	2.7
13.7 µg/ml, genetic background: Δrob	2.56	2.8	3.05	2.461	2.36	2.49	2.17	2.55
13.7 µg/ml, genetic background: ΔsoxS	2.67	2.78	2.97	2.44	3	3.2	2.83	2.551
27.5 µg/ml, genetic background: wild type	2.65	2.76	2.79	2.55	2.45	2.69	2.53	2.69
27.5 µg/ml, genetic background: ΔmarA	2.56	3.46	3.02	2.87	2.93	3.26	2.33	2.44
27.5 µg/ml, genetic background: Δrob	2.78	2.68	2.58	2.32	2.05	2.14	1.97	2.56
27.5 µg/ml, genetic background: ΔsoxS	2.7	2.73	2.89	2.2	2.73	2.75	2.6	2.56
54.9 µg/ml, genetic background: wild type	2.96	3.182	3.26	2.55	2.98	2.95	2.46	2.66
54.9 µg/ml, genetic background: ΔmarA	3.08	3.96	3.51	3.04	3.34	4.23	2.7	2.76
54.9 µg/ml, genetic background: Δrob	2.42	2.77	3.2	2.42	2.23	2.56	1.97	2.36
54.9 µg/ml, genetic background: ΔsoxS	2.68	2.9	3.02	2.38	3.03	3.43	3.06	2.68
109.8 µg/ml, genetic background: wild type	2.54	2.8	2.63	2.03	2.041	2.64	2.28	2.42
109.8 µg/ml, genetic background: ΔmarA	2.24	3.07	2.47	2.25	2.11	3.23	1.78	1.94
109.8 µg/ml, genetic background: Δrob	1.99	2.01	2.32	1.63	1.38	1.53	1.3	2.08
109.8 µg/ml, genetic background: ΔsoxS	1.99	1.68	1.85	1.12	1.18	1.67	1.64	1.79

From the supplement of paper PMC12282887
